# Source: the supplement of paper PMC12067093, “Discovery and optimisation of a covalent ligand for TRIM25 and its application to targeted protein ubiquitination” (Chemical Science, 2025)
# The chains behind the UniProt entries cited, without tags or fusion partners. Where a name states a change or a piece, a line headed by the entry shows the natural chain unless it says otherwise.
# UniProt P08575: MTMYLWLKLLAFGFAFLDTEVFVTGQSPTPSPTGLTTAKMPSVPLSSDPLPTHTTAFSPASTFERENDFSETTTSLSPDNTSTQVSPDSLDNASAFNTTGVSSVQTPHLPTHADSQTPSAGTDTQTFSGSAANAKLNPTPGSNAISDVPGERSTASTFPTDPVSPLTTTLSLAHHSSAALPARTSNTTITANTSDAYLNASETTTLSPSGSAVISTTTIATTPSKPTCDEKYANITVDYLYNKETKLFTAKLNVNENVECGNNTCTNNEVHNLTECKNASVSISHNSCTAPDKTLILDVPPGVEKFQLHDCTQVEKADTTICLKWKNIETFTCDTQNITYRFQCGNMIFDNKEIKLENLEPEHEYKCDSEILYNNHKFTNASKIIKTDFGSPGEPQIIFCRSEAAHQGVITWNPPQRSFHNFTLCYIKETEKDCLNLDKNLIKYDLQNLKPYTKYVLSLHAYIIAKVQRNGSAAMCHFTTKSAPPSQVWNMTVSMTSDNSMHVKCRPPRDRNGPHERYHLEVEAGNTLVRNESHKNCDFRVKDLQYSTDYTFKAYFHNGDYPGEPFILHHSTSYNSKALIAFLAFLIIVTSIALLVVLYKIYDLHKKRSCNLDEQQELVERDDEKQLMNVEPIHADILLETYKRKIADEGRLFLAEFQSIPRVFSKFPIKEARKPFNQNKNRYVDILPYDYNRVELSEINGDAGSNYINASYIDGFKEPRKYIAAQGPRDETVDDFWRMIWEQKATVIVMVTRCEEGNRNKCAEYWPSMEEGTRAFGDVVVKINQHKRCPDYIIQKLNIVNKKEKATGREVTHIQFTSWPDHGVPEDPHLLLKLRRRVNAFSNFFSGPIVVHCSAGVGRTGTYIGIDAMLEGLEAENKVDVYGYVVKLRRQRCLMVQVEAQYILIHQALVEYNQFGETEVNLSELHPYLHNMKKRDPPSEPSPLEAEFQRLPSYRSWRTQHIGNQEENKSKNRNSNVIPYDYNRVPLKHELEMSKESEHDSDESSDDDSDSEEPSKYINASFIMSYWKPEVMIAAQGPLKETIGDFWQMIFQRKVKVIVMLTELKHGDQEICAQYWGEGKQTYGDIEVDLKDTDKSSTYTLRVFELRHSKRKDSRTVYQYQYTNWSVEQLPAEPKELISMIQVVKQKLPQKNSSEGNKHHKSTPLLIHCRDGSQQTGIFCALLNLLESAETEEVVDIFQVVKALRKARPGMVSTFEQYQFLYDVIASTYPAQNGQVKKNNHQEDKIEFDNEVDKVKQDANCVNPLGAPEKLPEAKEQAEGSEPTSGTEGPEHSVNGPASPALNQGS
# UniProt P20618: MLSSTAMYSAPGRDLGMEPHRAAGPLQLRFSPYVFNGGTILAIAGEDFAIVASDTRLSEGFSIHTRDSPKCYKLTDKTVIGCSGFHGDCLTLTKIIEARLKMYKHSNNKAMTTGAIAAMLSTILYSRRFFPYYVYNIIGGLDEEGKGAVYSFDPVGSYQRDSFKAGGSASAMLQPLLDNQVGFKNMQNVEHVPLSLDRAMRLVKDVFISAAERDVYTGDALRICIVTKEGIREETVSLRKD
# UniProt Q15008: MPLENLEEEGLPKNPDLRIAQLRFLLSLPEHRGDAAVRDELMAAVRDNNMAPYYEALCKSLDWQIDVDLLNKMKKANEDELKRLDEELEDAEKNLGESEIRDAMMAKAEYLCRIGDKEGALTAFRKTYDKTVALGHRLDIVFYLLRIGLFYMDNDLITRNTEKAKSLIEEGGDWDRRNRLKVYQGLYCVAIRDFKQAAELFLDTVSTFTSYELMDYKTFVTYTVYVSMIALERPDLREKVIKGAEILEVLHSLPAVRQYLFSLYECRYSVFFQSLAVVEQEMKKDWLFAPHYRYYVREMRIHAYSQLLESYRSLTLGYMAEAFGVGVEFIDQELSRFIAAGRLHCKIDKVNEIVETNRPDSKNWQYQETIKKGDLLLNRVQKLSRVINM
# UniProt Q13200: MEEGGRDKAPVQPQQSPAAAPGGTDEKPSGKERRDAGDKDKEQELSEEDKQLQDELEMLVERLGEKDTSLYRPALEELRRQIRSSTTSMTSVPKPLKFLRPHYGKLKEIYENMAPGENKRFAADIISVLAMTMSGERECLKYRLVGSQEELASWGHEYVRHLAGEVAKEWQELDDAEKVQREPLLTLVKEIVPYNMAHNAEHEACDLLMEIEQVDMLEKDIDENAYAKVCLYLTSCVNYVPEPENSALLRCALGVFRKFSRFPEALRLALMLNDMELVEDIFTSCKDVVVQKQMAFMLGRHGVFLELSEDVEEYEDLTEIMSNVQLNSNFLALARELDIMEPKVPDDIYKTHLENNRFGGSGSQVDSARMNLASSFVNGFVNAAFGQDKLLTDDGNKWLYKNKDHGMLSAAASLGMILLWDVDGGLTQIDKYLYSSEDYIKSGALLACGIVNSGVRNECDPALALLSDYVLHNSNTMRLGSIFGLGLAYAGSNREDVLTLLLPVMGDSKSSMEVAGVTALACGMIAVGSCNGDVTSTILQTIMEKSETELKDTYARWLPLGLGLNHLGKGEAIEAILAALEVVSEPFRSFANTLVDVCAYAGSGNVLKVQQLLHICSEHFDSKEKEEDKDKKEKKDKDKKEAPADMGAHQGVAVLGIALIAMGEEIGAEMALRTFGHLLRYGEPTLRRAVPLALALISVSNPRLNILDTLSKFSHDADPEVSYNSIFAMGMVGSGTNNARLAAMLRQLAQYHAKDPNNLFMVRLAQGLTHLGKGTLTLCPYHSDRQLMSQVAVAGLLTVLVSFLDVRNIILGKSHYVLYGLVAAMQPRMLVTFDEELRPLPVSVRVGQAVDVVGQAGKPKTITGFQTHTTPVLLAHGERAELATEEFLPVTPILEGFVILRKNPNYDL
# UniProt P10586, whole entry, looked up: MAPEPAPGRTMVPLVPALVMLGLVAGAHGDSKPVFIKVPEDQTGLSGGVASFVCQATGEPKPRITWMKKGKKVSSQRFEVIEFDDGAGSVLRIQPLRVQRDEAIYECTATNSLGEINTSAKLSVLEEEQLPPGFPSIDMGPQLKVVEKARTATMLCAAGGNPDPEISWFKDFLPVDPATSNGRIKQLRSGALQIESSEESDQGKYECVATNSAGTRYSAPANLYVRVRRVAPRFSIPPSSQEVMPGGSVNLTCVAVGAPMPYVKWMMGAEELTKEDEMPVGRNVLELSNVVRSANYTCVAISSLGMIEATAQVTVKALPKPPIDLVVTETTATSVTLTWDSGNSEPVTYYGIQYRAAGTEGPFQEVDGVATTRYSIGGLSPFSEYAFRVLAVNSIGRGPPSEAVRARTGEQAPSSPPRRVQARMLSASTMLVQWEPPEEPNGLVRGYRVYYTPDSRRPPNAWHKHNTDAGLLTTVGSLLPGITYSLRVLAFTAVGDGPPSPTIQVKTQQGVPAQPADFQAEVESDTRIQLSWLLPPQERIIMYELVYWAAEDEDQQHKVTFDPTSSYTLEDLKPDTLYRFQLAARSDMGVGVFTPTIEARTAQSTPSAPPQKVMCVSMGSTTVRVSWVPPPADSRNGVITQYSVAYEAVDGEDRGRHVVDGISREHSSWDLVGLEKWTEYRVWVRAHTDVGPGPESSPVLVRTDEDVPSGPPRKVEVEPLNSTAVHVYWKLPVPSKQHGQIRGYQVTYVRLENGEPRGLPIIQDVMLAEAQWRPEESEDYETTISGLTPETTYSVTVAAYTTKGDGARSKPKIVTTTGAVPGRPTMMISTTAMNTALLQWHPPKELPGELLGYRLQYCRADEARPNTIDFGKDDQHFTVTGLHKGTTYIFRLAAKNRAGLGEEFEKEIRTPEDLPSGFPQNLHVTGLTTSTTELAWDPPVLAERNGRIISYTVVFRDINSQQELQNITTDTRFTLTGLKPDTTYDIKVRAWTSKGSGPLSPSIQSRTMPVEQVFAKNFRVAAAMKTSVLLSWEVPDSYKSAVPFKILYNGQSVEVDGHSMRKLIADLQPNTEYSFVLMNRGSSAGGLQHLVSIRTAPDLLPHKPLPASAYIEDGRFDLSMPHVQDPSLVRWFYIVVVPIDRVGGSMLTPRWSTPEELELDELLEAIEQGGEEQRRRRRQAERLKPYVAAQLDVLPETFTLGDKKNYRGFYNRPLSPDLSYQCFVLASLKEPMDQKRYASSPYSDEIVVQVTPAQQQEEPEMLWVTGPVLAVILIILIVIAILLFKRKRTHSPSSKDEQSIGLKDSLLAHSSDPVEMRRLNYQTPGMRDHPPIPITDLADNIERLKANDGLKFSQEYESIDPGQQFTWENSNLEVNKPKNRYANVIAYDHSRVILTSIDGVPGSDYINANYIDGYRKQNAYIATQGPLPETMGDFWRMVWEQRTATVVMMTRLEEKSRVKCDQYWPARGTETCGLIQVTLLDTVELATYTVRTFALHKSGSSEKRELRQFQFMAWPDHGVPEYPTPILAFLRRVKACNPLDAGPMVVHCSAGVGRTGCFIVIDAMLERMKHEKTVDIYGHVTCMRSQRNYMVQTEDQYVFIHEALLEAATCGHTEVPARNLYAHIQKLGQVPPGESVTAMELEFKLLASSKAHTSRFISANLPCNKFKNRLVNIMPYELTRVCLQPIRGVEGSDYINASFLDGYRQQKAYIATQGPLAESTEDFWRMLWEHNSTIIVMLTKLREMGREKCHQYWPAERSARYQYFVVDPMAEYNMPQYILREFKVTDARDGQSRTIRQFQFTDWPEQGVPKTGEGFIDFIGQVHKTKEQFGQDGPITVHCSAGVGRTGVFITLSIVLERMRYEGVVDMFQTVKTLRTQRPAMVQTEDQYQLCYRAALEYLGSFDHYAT
# UniProt Q14289, whole entry, looked up: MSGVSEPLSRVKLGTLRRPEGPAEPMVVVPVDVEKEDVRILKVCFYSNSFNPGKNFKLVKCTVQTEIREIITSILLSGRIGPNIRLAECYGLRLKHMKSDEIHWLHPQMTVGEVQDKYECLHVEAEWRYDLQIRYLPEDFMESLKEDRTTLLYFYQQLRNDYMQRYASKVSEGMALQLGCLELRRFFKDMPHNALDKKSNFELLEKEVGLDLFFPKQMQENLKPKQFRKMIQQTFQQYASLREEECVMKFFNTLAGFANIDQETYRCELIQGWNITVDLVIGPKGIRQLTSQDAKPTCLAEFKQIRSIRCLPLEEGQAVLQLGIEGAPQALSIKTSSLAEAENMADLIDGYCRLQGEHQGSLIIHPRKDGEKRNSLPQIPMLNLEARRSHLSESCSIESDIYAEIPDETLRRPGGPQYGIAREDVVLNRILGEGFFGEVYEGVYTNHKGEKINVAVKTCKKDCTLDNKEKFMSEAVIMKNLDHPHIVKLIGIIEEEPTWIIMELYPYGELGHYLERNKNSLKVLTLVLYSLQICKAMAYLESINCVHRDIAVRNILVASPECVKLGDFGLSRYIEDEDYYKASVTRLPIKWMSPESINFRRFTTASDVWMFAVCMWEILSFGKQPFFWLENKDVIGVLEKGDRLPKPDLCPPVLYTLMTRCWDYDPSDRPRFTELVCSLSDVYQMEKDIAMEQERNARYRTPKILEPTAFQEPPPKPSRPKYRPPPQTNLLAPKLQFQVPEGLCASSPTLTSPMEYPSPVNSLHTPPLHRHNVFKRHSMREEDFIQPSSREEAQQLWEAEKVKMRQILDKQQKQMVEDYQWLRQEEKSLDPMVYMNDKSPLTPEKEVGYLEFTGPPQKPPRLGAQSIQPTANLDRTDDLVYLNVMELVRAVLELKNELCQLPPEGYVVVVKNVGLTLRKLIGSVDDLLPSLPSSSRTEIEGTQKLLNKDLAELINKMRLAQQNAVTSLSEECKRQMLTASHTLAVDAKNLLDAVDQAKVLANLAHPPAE
# UniProt Q15185: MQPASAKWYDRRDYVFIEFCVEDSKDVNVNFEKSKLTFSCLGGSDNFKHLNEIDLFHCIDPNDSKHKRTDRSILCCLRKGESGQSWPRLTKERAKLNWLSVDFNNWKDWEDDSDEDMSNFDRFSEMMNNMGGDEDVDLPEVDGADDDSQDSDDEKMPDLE
# UniProt P40306: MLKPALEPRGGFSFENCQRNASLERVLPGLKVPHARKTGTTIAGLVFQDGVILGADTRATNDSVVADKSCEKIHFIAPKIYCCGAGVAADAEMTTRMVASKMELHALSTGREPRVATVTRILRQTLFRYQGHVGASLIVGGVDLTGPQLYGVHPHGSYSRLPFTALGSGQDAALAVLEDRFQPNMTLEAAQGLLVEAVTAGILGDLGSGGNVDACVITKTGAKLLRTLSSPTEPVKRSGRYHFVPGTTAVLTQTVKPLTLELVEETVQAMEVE
# UniProt P55036: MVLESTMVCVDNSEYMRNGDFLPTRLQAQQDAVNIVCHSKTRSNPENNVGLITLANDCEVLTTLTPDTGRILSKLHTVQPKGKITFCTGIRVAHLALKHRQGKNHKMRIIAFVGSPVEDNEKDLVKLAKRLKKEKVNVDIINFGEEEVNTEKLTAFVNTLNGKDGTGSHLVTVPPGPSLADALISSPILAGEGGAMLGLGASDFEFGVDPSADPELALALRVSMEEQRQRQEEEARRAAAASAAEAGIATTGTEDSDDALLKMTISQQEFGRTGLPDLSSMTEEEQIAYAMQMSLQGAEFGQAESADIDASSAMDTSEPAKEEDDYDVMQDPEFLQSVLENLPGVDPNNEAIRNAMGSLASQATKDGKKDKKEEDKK
# The other results are listed elsewhere or left out.
# Compound: CC1Cc2ccccc2N1C(=O)C1CCCN(C1)C(=O)CCl (mixture of isomers) [TRIM25 ligand 11 (diastereomer mixture)]
# Experiment: probe-labelled cysteine peptide fold change vs DMSO (competition) (log2 fold change); higher = less target engagement (more negative = stronger competition)
# Settings: THP-1, incubation time: 4 h
# 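Note: competitive chemoproteomic profiling in live THP-1 cells with an iodoacetamide desthiobiotin (IA-DTB) probe, comparing probe-labelled peptide intensities in compound-treated cells against DMSO-treated controls.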
Target,probe-labelled cysteine peptide fold change (10 µM),probe-labelled cysteine peptide fold change (50 µM)
PSMC1_P62191_148_DLLEPGCSVLLNHK (UniProt P62191),0.0214,0.034
PSMC2_P35998_270_KACLIFFDEIDAIGGAR (UniProt P35998),-0.456,-0.35
PSMC5_P62195_112_NIDINDVTPNCR (UniProt P62195),-0.0865,-0.0343
PTPRC_P08575_367_CDSEILYNNHK (UniProt P08575),0.0662,-0.00564
PSMB1_P20618_89_TVIGCSGFHGDCLTLTK (UniProt P20618),0.0959,0.02
PSMD6_Q15008_188_VYQGLYCVAIR (UniProt Q15008),-0.0246,0.231
PSMD2_Q13200_448_SGALLACGIVNSGVR (UniProt Q13200),-0.0465,-0.0191
PTBP3_O95758_500_NLFIEAGCSVK (UniProt O95758),0.0521,-0.000554
PTPRF_P10586_1582_TVDIYGHVTCMR (UniProt P10586),9.14e-06,0.148
PTK2B_Q14289_395_RSHLSESCSIESDIYAEIPDETLR (UniProt Q14289),0.0139,0.214
PTGES3_Q15185_20_DYVFIEFCVEDSK (UniProt Q15185),0.12,0.0272
PTK2B_Q14289_180_VSEGMALQLGCLELR (UniProt Q14289),-0.0405,0.1
PUF60_Q9UHX1_487_DIDDDLEGEVTEECGK (UniProt Q9UHX1),-0.0171,0.0587
PSMB10_P40306_17_GGFSFENCQR (UniProt P40306),-0.0615,-0.17
PSMD4_P55036_87_ITFCTGIR (UniProt P55036),-0.00598,0.0893

# A different layout for part of the listing above.
Target | probe-labelled cysteine peptide fold change (10 µM) | probe-labelled cysteine peptide fold change (50 µM)
PSMB1_P20618_89_TVIGCSGFHGDCLTLTK (UniProt P20618) | 0.0959 | 0.02
PSMD6_Q15008_188_VYQGLYCVAIR (UniProt Q15008) | -0.0246 | 0.231
